Assay results taken from patent publication US20190209648A1.
Results are given in words; binding and its absence hold for the method and conditions named. Binding seen in cells or lysates may run through a third protein. For some assays here: A result given as binding can be weak or reduced; the word gives no strength. Sequences can lack the tags named with a protein.

How the values were obtained:
[1] = target: voltage-dependent anion channel (VDAC); assay: GST pull-down with heart mitochondria protein extracts
[2] = target: adenine nucleotide translocase (ANT) (mouse); assay: GST pull-down with heart mitochondria protein extracts, Western blot

binding [1]: no binding | binding [2]: binds
B1: GST-ApoO fusion protein (protein, not shown: a dimerising Fc or GST)
chain: APKKDSPPKNSVKVDELSLYSVPEGQSKYVEEARSQLEESISQLRHYCEPYTTWCQETYSQTKPKMQSLVQWGLDSYDYLQNAPPGFFPRLGVIGFAGLIGLLLARGSKIKKLVYPPGFMGLAASLYYPQQAIVFAQVSGERLYDWGLRGYIVIEDLWKENFQKPGNVKNSPGTK
